The list shows a part of the results. These are raw signals, not scaled to a control.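 Primary screen: polymyxin B was added at a level permeabilizing Salmonella outer membranes while sparing inner membranes. DMSO wells, both with and without polymyxin B, established maximum growth. Plate-to-plate variation meant each plate was ranked on its own, and the lowest-OD600 compounds were selected as hits.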
Tested on: Salmonella enterica serovar Typhimurium SL1344
Test: bacterial growth OD600 after 18 h with compound and polymyxin B; higher = more bacterial growth (less inhibition)
Settings: 50 µM, Mueller-Hinton broth

Structure (SMILES) | bacterial growth OD600 (polymyxin B 1 µg/mL) | bacterial growth OD600 (polymyxin B 0.75 µg/mL)
Clc1ccccc1OC1CCN(Cc2nc(-c3ccccc3)no2)CC1 | 0.645 | –
Cc1oc(-c2ccc(NC(=O)Cc3ccccc3)cc2)nc1CNC(=O)Cn1ncc2ccccc21 | – | 0.835
CC(=O)N1CCCN(C2CCN(c3ccc(NC(=O)CCc4ccccc4)cc3)CC2)CC1 | – | 0.811
COc1ccc(CCN2CC(NC(C)=O)CC2=O)cc1 (stereo not given) | 0.922 | –
CCCn1cc(CN2C[C@H]3OC(=O)N(CCc4ccccn4)[C@H]3C2)c(C)n1 | – | 0.957
COc1cccc(CNC2CCN(c3ccc(C(=O)NC(C)c4ccccc4)cc3)CC2)c1OC (stereo not given) | – | 0.781
COc1ccc2c(c1)-c1nc(-n3ncc(C(=O)N4CCN(C5CCCC5)CC4)c3C)ncc1CC2 | – | 0.795
O=C1CCC(CCC(=O)N2CCCC(C(=O)c3ccccc3)C2)(Cc2ccccc2)N1 (stereo not given) | – | 0.998
COC1CCN(c2ccc(-c3nc(COc4ccccc4)no3)cn2)CC1 | 0.898 | –
C[C@@H]1CN(C(=O)c2csc3nc(-c4cccc(C(F)(F)F)c4)cn23)C[C@H](C)O1 | 1.25 | –
CN1CCN([C@@H]2CCN(C3CCN(c4ccc5c(c4)CCC5)CC3)C[C@H]2O)CC1 | – | 0.867
Cc1cccc(CN2CCC(N3CCC(C(=O)N4CCCCC4)CC3)CC2)n1 | 1.03 | –
COC1CCN(C(=O)CC(c2ccccc2)c2ccc(Cl)cc2)CC1 (stereo not given) | 0.52 | –
CCC(COC)NC(=O)CCc1nnc(CCc2ccccc2OC)o1 (stereo not given) | 1.05 | –
CN(C(=O)CCc1ccncc1)C1CCCN(CCc2ccccc2)C1 (stereo not given) | 1.19 | –
COc1ccccc1CCNC1CCN(c2ccc(NC(=O)CCc3ccccc3)cc2)CC1 | – | 0.833
O=C(CCC(F)(F)F)NC1CCCc2c1cnn2-c1cc(F)cc(F)c1 (stereo not given) | – | 0.708
CC(CNC(=O)CCC1(Cc2ccc(Cl)cc2)CCC(=O)N1)c1ccccc1 (stereo not given) | – | 0.866
Cc1ccccc1Cn1cc(C(=O)N(C)CCCC2CCCC2)nn1 | 0.794 | –
Cc1ccsc1CN(C)C(=O)C1CCCN(C2CCN(C(=O)C3CC3)CC2)C1 (stereo not given) | 0.958 | –
Cc1ccccc1CCN1CCCC(CN(C)C(=O)c2ccccc2F)C1 (stereo not given) | 0.806 | –
O=C(c1cn[nH]c1)N1CCc2onc(C(c3ccccc3)c3ccccc3)c2C1 | – | 0.588
CCOC(=O)C1(CCOc2ccccc2)CCCN(Cc2nccn2CC)C1 (stereo not given) | – | 0.007
COCCNC(=O)c1ccc(OC)cc1OC1CCN(Cc2ccccc2F)CC1 | 0.98 | –
COC(=O)[C@H](Cc1ccccc1)NC1CCN(c2cccc(NC(=O)CC3CCCC3)c2)CC1 | – | 0.021
COc1ccc(-c2nn(-c3ccccc3C)cc2CN2CCCC(C(N)=O)C2)cc1F (stereo not given) | 1.13 | –
CN(c1ccc(-c2nc(Cc3ccc(F)cc3)no2)cn1)C1CCOCC1 | – | 0.011
CN(C(=O)C1CCCN(C2CCN(C(=O)C3CC3)CC2)C1)C1CCCCC1 (stereo not given) | – | 0.912
COc1ccc2cc(C(C)NC(=O)Cn3nnnc3CN3CCCC3)ccc2c1 (stereo not given) | – | 0.028
COc1ccc(C2(CC(=O)N3CCN(Cc4ccc(C)cc4)C(=O)C3)CC(=O)N(C3CC3)C2=O)cc1 (stereo not given) | – | 0.75

Taken from the listing for reference:
Structure (SMILES) | bacterial growth OD600 (polymyxin B 1 µg/mL) | bacterial growth OD600 (polymyxin B 0.75 µg/mL)
Cc1ccsc1CN(C)C(=O)C1CCCN(C2CCN(C(=O)C3CC3)CC2)C1 (stereo not given) | 0.958 | –
Cc1ccccc1CCN1CCCC(CN(C)C(=O)c2ccccc2F)C1 (stereo not given) | 0.806 | –

From the supplement of paper PMC12889115
